# From PubChem BioAssay (Tox21)
# Chains of the proteins cited; added tags and fusions are not shown. Lines headed by an entry give the natural chain unless they say otherwise; changes in a name come on top.
# UniProt Q969F8, whole entry, looked up: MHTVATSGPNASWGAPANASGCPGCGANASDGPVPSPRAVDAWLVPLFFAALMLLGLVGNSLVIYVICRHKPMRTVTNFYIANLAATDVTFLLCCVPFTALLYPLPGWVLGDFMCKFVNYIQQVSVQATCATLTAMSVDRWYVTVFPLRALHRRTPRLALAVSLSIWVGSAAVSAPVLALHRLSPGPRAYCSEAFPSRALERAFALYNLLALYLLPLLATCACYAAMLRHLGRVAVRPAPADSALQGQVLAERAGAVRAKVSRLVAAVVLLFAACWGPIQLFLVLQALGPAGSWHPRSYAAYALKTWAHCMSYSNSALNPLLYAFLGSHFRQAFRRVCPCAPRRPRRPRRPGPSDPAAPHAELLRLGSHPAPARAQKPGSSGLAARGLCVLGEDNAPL
# UniProt P28223, whole entry, looked up: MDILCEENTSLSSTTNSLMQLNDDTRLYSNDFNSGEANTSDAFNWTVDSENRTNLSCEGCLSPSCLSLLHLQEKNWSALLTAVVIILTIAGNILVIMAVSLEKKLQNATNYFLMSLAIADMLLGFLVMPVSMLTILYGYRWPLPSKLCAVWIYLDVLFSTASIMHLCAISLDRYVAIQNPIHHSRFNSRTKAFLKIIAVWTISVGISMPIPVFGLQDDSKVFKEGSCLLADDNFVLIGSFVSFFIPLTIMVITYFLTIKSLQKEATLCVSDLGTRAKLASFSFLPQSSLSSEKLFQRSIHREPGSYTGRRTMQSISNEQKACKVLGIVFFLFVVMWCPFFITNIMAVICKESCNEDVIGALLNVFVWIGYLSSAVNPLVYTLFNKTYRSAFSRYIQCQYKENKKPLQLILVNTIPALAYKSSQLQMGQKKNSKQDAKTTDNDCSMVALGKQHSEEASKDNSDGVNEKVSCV
# UniProt P11229: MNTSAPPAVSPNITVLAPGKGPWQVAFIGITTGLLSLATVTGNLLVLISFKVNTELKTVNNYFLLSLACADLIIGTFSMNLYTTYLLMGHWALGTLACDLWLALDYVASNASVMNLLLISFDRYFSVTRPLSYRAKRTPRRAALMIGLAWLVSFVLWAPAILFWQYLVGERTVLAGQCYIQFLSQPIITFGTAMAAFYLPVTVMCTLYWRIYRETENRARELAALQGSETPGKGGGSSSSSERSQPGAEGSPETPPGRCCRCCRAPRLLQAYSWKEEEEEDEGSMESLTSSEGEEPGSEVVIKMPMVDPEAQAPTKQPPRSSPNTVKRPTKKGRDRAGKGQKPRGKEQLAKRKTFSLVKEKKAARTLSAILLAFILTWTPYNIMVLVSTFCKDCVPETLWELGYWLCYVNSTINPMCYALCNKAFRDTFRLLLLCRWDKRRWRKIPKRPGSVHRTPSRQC
# UniProt P14416, whole entry, looked up: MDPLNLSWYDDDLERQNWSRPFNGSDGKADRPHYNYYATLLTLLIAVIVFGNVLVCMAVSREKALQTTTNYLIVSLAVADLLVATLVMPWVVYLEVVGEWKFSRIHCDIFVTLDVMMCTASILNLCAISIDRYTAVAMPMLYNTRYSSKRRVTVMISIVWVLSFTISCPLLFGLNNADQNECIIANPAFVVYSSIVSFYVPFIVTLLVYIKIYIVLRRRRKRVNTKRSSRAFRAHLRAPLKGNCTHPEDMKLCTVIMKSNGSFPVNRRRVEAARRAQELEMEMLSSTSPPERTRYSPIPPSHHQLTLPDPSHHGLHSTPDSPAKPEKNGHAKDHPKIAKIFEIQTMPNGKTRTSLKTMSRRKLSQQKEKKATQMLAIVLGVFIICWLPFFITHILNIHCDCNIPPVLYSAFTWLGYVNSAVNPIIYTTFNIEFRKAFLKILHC
# “And” between values parts separate entries of the source, which are not always exact repeats. Identical values can stand only once. Inconclusive results, whose numbers are uncertain, are shown with a selection of clear calls. For some assays here: Potencies beside an inconclusive call are fits to weak or partial responses and may not hold up. The source made the active and inactive calls. Unless noted, the call rests on the fitted dose curve.
# Experiments:
# [1] = G protein-coupled receptor (GPCR) small molecule agonists, calcium flux assay: HEK293 wild type cell line counter screen (AID 1920065); further: on the % scale 0 is the no-effect control and ±100 the full control effect
# In short: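 Non-specific calcium responders were flagged by adding DMSO-dissolved compounds to dye-loaded cells and reading 480/540 nm fluorescence each second for 3 min; ATP served as positive control.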
# [2] = cAMP Responsive Elements (CRE) small molecule antagonists, cell-based qHTS assay (AID 1963591; active means well fitted inhibition curve with a large enough effect in the signal ratio in the repeat runs, not every such curve was filed as active; inconclusive means weak or mixed curves, or effect the other way; the % refers to the signal ratio; further: potency means the concentration at half of the fitted maximal effect; on activity change, negative = inhibition: on the % scale 0 is the no-effect control and ±100 the full control effect); conditions: CRE-bla HEK293T, beta-lactamase FRET ratio; activity change, negative = inhibition: at 92.4 µM (top of the series) unless noted
# In short: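 Fluorescence intensity from cleaved LiveBLAzer B/G substrate (2 h, room temperature) quantified CRE-bla activity in HEK 293T cells exposed 3 h to compound with 0.25 uM final NKH477.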
# [3] = molecular target: Beta-2 adrenergic receptor (Homo sapiens) (UniProt P07550); assay: Adrenergic beta2 receptor (ADRB2) small molecule agonists, cell-based qHTS assay (AID 1963593); conditions: CHO-ADRB2 cells, cAMP HTRF, 30 min; further: potency means the concentration at half of the fitted maximal effect;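 on activation: CHO cells stably overexpressing human ADRB2; on the % scale 0 is the no-effect control and ±100 the full control effect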
# In short: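 CHO cells stably over-expressing ADRB2 were plated overnight at 37C, then dosed with compounds plus a stimulation mix containing 100uM IBMX and 25uM Ro-20-1724 for 0.5hr at room temperature. cAMP was measured by HTRF competition, 1hr.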
# [4] = molecular target: KiSS-1 receptor (Homo sapiens) (UniProt Q969F8); assay: Human kisspeptin (KISS1R) small molecule agonists, calcium flux assay in KISS1R-HEK293 cells (AID 1920064; active means well fitted activation curve with a large enough effect in the repeat runs; inconclusive means weak or mixed curves; further: potency means the concentration at half of the fitted maximal effect; on activation: on the % scale 0 is the no-effect control and ±100 the full control effect)
# In short: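 Triplicate 15-concentration series were applied to dye-loaded human KISS1R HEK293 cells, and agonist-evoked calcium fluorescence was captured for 3 min.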
# [5] = p53 small molecule agonists, cell-based qHTS assay with human liver microsomes: qHTS cell viability counter screen (AID 1963579); further: nearly all actives have a fitted effect of over 45% in size; further: potency means the concentration at half of the fitted maximal effect
# In short: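 Tox21 library compounds, delivered from DMSO stocks, were tested on p53RE-bla cells together with 0.5 mg/mL human liver microsomes and 0.5 mg/mL NADPH (final) over 16 h at 37 C; CellTiter-Glo luminescence served as the cytotoxicity measure.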
# [6] = molecular target: 5-hydroxytryptamine receptor 2A (Homo sapiens) (UniProt P28223); assay: 5-hydroxytryptamine receptor 2A (HTR2A) small molecule agonists, cell-based qHTS assay (AID 1963587); further: potency means the concentration at half of the fitted maximal effect; nearly all actives have a fitted effect of over 30% in size
# In short: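 HTR2A-CHO cells, plated 18 h at 37 C/5% CO2, dye-loaded 1 h at 37 C; compounds in DMSO added by pin tool (agonist mode). Intracellular calcium flux read as kinetic fluorescence on FDSS over 2 min at 1 s intervals.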
# [7] = molecular target: Muscarinic acetylcholine receptor M1 (Homo sapiens) (UniProt P11229); assay: Cholinergic receptor muscarinic 1 (CHRM1) small molecule antagonists, cell-based qHTS assay (AID 1963588); further: potency means the concentration at half of the fitted maximal effect; nearly all actives have a fitted effect of over 40% in size
# In short: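 Compounds were tested at 15 concentrations in three independent runs. Dye-loaded CHRM1-CHO cells were exposed 5 min at room temperature before stimulation by acetylcholine added at 50nM. Intracellular calcium was read kinetically on FDSS for 3 min.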
# [8] = molecular target: Muscarinic acetylcholine receptor M1 (Homo sapiens) (UniProt P11229); assay: Cholinergic receptor muscarinic 1 (CHRM1) small molecule agonists, cell-based qHTS assay (AID 1963589); further: potency means the concentration at half of the fitted maximal effect; nearly all actives have a fitted effect of over 35% in size
# In short: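 qHTS, 15-point titration, 3 independent runs: compounds pin-transferred onto dye-loaded CHRM1-CHO cells (human M1), calcium fluorescence followed every second to detect agonism.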
# [9] = molecular target: D(2) dopamine receptor (Homo sapiens) (UniProt P14416); assay: Dopamine D2 receptor (DRD2) small molecule agonists, cell-based qHTS assay (AID 1963594); conditions: HEK293-DRD2 cAMP HTRF, agonist mode, 30 min; activation: at 92.4 µM (top of the series) unless noted; further: on the % scale 0 is the no-effect control and ±100 the full control effect; nearly all actives have a fitted effect of over 35% in size
# In short: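 HEK293 cells stably expressing DRD2 were cultured 24 h at 37 C, then given Ro20-1724 (0.1 mM final) and compounds for 10 min at room temperature. NKH477 (200nM) was then added for 30 min. cAMP was read by HTRF.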
# [10] = molecular target: 5-hydroxytryptamine receptor 2A (Homo sapiens) (UniProt P28223); assay: 5-hydroxytryptamine receptor 2A (HTR2A) small molecule antagonists, cell-based qHTS assay (AID 1963586); further: nearly all actives have a fitted effect of over 45% in size; further: potency means the concentration at half of the fitted maximal effect
# In short: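 CHO cells stably expressing human HTR2A were plated for 18 h at 37 C, then loaded with calcium dye for 1 h. Compounds were preincubated 5 min at room temperature before DOI (4 nM solution) was added. Kinetic fluorescence was read for 3 min.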
# [11] = p53 small molecule agonists, cell-based qHTS assay: qHTS cell viability counter screen (AID 1963581); further: nearly all actives have a fitted effect of over 45% in size; further: potency means the concentration at half of the fitted maximal effect
# In short: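 Multiplexed with the reporter read, a CellTiter-Glo step (30 min, room temperature) gauges ATP-based viability of HCT-116 p53RE-bla cells after 16 h compound incubation at 37 C.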
# [12] = molecular target: Beta-2 adrenergic receptor (Homo sapiens) (UniProt P07550); assay: Adrenergic beta2 receptor (ADRB2) small molecule antagonists, cell-based qHTS assay (AID 1963592); conditions: CHO-ADRB2 cells, isoproterenol-stimulated cAMP HTRF ratio, 0.5 h; further: on the % scale 0 is the no-effect control and ±100 the full control effect; nearly all actives have a fitted effect of over 50% in size
# In short: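 Assay format: CHO-ADRB2 cells, 18-20hr seeding at 37C/5% CO2, then compound plus 1nM isoproterenol agonist mix for 0.5hr RT. Homogeneous time-resolved fluorescence cAMP detection after 1hr, expressed as 665/615 nm ratio.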
# [13] = molecular target: D(2) dopamine receptor (Homo sapiens) (UniProt P14416); assay: Dopamine D2 receptor (DRD2) small molecule antagonists, cell-based qHTS assay (AID 1963595; active means well fitted inhibition curve with a large enough effect in the signal ratio in the repeat runs, with a control signal flat; inconclusive means weak or mixed curves, or effect the other way; the % refers to the signal ratio; further: potency means the concentration at half of the fitted maximal effect); conditions: HEK293-DRD2 cAMP HTRF antagonist mode; activity change, negative = inhibition: at 92.4 µM (top of the series) unless noted
# In short: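 Antagonism was scored as restored cAMP in HEK293-DRD2 cells. These cells were stimulated with 200 nM NKH477 and 12 nM quinpirole for 30 min at room temperature, in the presence of 0.1 mM Ro20-1724.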
# [14] = p53 small molecule agonists, cell-based qHTS assay with human liver microsomes (AID 1963577); conditions: HCT-116 p53RE-bla with human liver microsomes, ratio, 16 h; activation: at 66 µM (top of the series) unless noted; further: potency means the concentration at half of the fitted maximal effect
# In short: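 Metabolically competent format: test substances, human liver microsomes and NADPH (both 0.5 mg/mL final) incubated with p53RE-bla cells 16 h at 37 C. Beta-lactamase reporter signal then quantified by fluorescence.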
# [15] = p53 small molecule agonists, cell-based qHTS assay with rat liver microsomes (AID 1963578); conditions: HCT-116 p53RE-bla, beta-lactamase ratio, 16 h; activation: at 66 µM (top of the series) unless noted; further: potency means the concentration at half of the fitted maximal effect
# In short: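 Each plate received p53RE-bla cells, then compound, then rat liver microsomes and NADPH (both 0.5 mg/mL final). Plates were held 16 h at 37 C, and beta-lactamase activity was detected with LiveBLAzer over 2 h.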
# [16] = cAMP Responsive Elements (CRE) small molecule agonists, cell-based qHTS assay (AID 1963590); conditions: CRE-bla HEK293T, beta-lactamase FRET ratio, 3 h; activation: at 92.4 µM (top of the series) unless noted; further: potency means the concentration at half of the fitted maximal effect
# In short: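 Quantitative HTS for CRE agonists: HEK 293T CRE-bla cells, overnight plating, 3 h compound incubation at 37 C/5% CO2, then 2 h room-temperature LiveBLAzer B/G FRET substrate loading.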
# [17] = p53 small molecule agonists, cell-based qHTS assay with rat liver microsomes: qHTS cell viability counter screen (AID 1963580); further: potency means the concentration at half of the fitted maximal effect; nearly all actives have a fitted effect of over 45% in size
# In short: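 Luminescent ATP readout (CellTiter-Glo, 30 min at room temperature) reports viability of p53RE-bla HCT-116 cells after 16 h at 37 C with test compounds under metabolic activation by rat liver microsomes and NADPH at 0.5 mg/mL final each.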
# [18] = p53 small molecule agonists, cell-based qHTS assay (AID 1963582; active means well fitted activation curve with a large enough effect in the signal ratio in the repeat runs, not every such curve was filed as active; inconclusive means weak or mixed curves; the % refers to the signal ratio; further: potency means the concentration at half of the fitted maximal effect); conditions: HCT-116 p53RE-bla reporter, beta-lactamase FRET ratio, 16 h; activation: at 66 µM (top of the series) unless noted
# In short: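 Beta-lactamase reporter cells (p53RE-bla) treated with compounds for 16 h at 37 C; FRET substrate, 2 h, room temperature; fluorescence intensity.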
# [19] = activation: at 92.4 µM (top of the series) unless noted
# [20] = activity change, negative = inhibition: at 92.4 µM (top of the series) unless noted
smiles,measurement,setting,value
CC(=O)OC/C=C(\C)CCC=C(C)C,Potency,[1],inactive
same,"activity change, negative = inhibition",[2],inconclusive: 15.5%
same,activation,[3]; [19],inconclusive: -18.4%
CC(C)(C)c1n[nH]c(=S)n(N)c1=O,Potency,[4],inactive
same,"activity change, negative = inhibition",[2],inconclusive: 11.9%
same,Potency,[3]; [19],inactive
CC(c1cc2ccccc2s1)N(O)C(N)=O (stereo unspecified),Potency,[1],inactive
same,Potency,[5],inactive
same,Potency,[3]; [19],inactive
CC(=O)CC(=O)Nc1ccccc1C,Potency,[4],"inconclusive: 55.6 µM [activator, single point]"
same,Potency,[6],"inconclusive: 55.6 µM [activator, single point]"
same,Potency,[7],"inconclusive: 18.8 µM [inhibitor, partial curve]"
same,Potency,[8],"inconclusive: 55.6 µM [rising, single point]"
same,Potency,[3]; [19],"inconclusive: 15.5 µM [inhibitor, partial curve] and inactive"
CCCCOCCOCCOC(=O)CCCCC(=O)OCCOCCOCCCC,Potency,[4],"inconclusive: 24.5 µM [activator, full curve, poor fit]"
same,Potency,[3]; [19],"inconclusive: 27.4 µM [inhibitor] and inconclusive: 217 nM [inhibitor, full curve, poor fit]"
same,Potency,[9],inactive
C=CC(=O)N1CCOCC1,Potency,[4],inactive
same,Potency,[10],inactive
O=C(Cl)c1ccc(F)c(Cl)c1,Potency,[4],"inconclusive: 43.6 µM [activator, partial curve, poor fit]"
same,Potency,[11],inactive
same,activation,[3]; [19],inconclusive: 34.4%
CCCCCCCC(=O)OCCCCCC,Potency,[4],inactive
same,Potency,[12]; [20],inactive
same,Potency,[3]; [19],inactive
same,"activity change, negative = inhibition",[13],inconclusive: 6.6%
O=C(O)CC(C(=O)O)C(CC(=O)O)C(=O)O (stereo unspecified),Potency,[4],inactive
same,Potency,[14],inactive
same,activation,[15],inconclusive: 23.3%
same,Potency,[10],"inconclusive: 0.0041 µM [inhibitor, full curve]"
same,Potency,[16],"inconclusive: 5.35 µM [activator, full curve]"
same,Potency,[3]; [19],"inconclusive: 23.9 µM [inhibitor, full curve]"
same,activation,[3]; [19],inconclusive: -30.5%
CC=O,Potency,[4],"inconclusive: 57.5 µM [activator, single point]"
same,Potency,[5],active: 47.9 µM
same,Potency,[17],"inconclusive: 42.7 µM [cytotoxic, single point]"
same,Potency,[11],"inconclusive: 53.7 µM [cytotoxic, single point]"
same,Potency,[18],"inconclusive: 10.7 µM [fluorescent, full curve]"
same,Potency,[6],"inconclusive: 57.5 µM [activator, single point]"
same,Potency,[7],active: 3.5 µM
same,Potency,[16],"inconclusive: 25.5 µM [rising, partial curve]"
same,Potency,[2],inconclusive: 20.2 µM
same,Potency,[12]; [20],inactive
same,activation,[3]; [19],inconclusive: 33.7%
CC(COC(=O)c1ccccc1)OC(=O)c1ccccc1 (stereo unspecified),Potency,[4],inactive
same,Potency,[10],inactive
same,Potency,[12]; [20],inactive
OCc1c[nH]c2ccccc12,Potency,[8],active: 0.0031 µM
O=C(c1cc(O)c(O)c(O)c1)c1ccc(O)c(O)c1O,"activity change, negative = inhibition",[12]; at 42.5 µM (top of the series),inconclusive: -4.76%
same,"activity change, negative = inhibition",[12]; at 92.4 µM (top of the series),inconclusive: 7.48%
same,activation,[3]; at 42.5 µM (top of the series),inconclusive: -1.9%
CCC1(c2ccccc2)C(=O)NCNC1=O,activation,[3]; at 42.5 µM (top of the series),inconclusive: -1.22%
OCCOCCOCCOCCOCCO,activation,[14],inconclusive: -0.975%
same,Potency,[15],"inconclusive: 46.6 µM [activator, single point]"
same,Potency,[3]; [19],"inconclusive: 12.4 µM [inhibitor, partial curve, poor fit] and inactive"
O=C(O)CCCC(=O)O,Potency,[14],"inconclusive: 40 µM [activator, partial curve]"
same,Potency,[15],"inconclusive: 14.2 µM [fluorescent, partial curve]"
same,Potency,[3]; [19],inactive
CCCCC(CC)COC(=O)/C=C/c1ccc(OC)cc1 (stereo unspecified),Potency,[14],"inconclusive: 17.8 µM [fluorescent, single point]"
same,Potency,[15],inactive
same,Potency,[7],"inconclusive: 13.2 nM [inhibitor, full curve, poor fit] and inconclusive: 365 nM [inhibitor, full curve, poor fit]"
same,activation,[3]; [19],inconclusive: 14.9% [at 42.5 µM]
Nc1nnc(-c2ccc([N+](=O)[O-])o2)o1,activation,[14],inconclusive: 4.25%
same,Potency,[15],inactive
same,Potency,[3]; [19],inactive
same,Potency,[13],"inconclusive: 0.486 µM [inhibitor, single point]"
Cc1cc2nc(N)sc2cc1C,activation,[14],inconclusive: 30%
same,Potency,[15],"inconclusive: 51.8 µM [fluorescent, single point]"
same,Potency,[2],"inconclusive: 34.7 µM [activator, full curve, poor fit]"
same,"activity change, negative = inhibition",[12]; [20],inconclusive: -25.9%
same,Potency,[3]; [19],inactive
